No constants are given. Whether binding was seen depends on the method and setting. Binding seen in cells or lysates may run through a third protein. Here binding means that the protein was enriched with, or labelled near, the bait; the list need not be complete.
Target: Cdc48 (WT), C-terminally tagged with FLAG and HIS-tag (S. cerevisiae) (UniProt P25694)
Experiment: affinity purification with mass spectrometry; FLAG-tagged Cdc48 (WT or C115S) co-immunoprecipitated on magnetic beads from yeast lysate (Tris HCl pH 7.5 with protease inhibitors, Triton; diluted 1:1 with 50 mM Tris-HCl pH 7.5, 200 mM NaAc, 10 % glycerol), overnight at 4 °C; cells grown 24 h and 48 h; LC-MS/MS with label-free quantification; PTM search of the same data by PROMISE

By UniProt entry, the sequences of proteins in these tests, tags left out.
UniProt P25694: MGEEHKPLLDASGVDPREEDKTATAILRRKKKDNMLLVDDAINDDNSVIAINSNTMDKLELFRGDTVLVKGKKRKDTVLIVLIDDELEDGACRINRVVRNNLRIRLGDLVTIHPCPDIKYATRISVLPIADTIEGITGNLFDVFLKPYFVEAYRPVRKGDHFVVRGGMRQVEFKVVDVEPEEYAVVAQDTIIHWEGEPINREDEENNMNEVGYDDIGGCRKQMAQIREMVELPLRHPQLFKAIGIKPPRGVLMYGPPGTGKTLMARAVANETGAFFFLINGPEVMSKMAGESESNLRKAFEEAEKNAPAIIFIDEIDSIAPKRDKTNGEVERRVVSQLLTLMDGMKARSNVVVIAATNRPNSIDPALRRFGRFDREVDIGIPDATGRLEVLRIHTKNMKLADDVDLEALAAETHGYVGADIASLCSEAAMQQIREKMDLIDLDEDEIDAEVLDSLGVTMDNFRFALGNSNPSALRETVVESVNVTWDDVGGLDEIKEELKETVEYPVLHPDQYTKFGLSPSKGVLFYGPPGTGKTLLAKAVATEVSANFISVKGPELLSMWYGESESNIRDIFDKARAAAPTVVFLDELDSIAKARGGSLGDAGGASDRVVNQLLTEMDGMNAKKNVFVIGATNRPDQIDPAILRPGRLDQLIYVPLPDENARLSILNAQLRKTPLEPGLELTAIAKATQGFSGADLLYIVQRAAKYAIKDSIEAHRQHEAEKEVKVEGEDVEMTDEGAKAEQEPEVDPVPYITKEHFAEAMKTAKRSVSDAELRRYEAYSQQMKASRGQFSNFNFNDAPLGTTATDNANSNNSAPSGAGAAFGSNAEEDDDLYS

Row | Binder | binding
1 | Ubx3 (protein, UniProt Q12229 1-455) MDIFRHTFGNNDDSFIRIPGAFREEPPADLNGRTEDQNSNTNEPTQSRDGRLKSILHFLFQAPLIVLYYLLNFIVRSSRLLKPLLRLHGFYQRKHNRLLDHSSQLHRLLENLENEAQAVTCSEGNGNNDDGSNTDSTSNNESSGVQFSFGSLYNPENGTFSKSIMQNSYTELLDACSEQVKFGVIYLHDPLLDNHMDYVNKILCSEAFVNMIRKYQVLLWYGDVTTSEGLQVSNALKIRQYPLLGIISLKAEKKIELIARVEGSISNYKAQDLEAIFSKNYSRLIQLRQQRQNIEMQRLIRQQQDSRYQDSLRRDQQRESERLEQTQREQMEREHQRIENQWLLWRKSQLKPEPSSDKDASKVAIRLENGQRLVRKFDASLPTEEIYAFVELQLHDMLNSENDTLPVYQPANYQHQYSFKLITPVPRRELDLSTKISDVSGIYPSGNIVMERLDE | binds
2 | Succinate dehydrogenase (Sdh2) (protein, UniProt P21801 21-266) TATTAAATHTPRLKTFKVYRWNPDEPSAKPHLQSYQVDLNDCGPMVLDALLKIKDEQDSTLTFRRSCREGICGSCAMNIGGRNTLACICKIDQNESKQLKIYPLPHMFIVKDLVPDLTNFYQQYKSIQPYLQRSSFPKDGTEVLQSIEDRKKLDGLYECILCACCSTSCPSYWWNQEQYLGPAVLMQAYRWLIDSRDQATKTRKAMLNNSMSLYRCHTIMNCTRTCPKGLNPGLAIAEIKKSLAFA | binds
3 | Phosphoenolpyruvate carboxykinase (Pck1) (protein, UniProt P10963 1-549) MSPSKMNATVGSTSEVEQKIRQELALSDEVTTIRRNAPAAVLYEDGLKENKTVISSSGALIAYSGVKTGRSPKDKRIVEEPTSKDEIWWGPVNKPCSERTWSINRERAADYLRTRDHIYIVDAFAGWDPKYRIKVRVVCARAYHALFMTNMLIRPTEEELAHFGEPDFTVWNAGQFPANLHTQDMSSKSTIEINFKAMEMIILGTEYAGEMKKGIFTVMFYLMPVHHNVLTLHSSANQGIQNGDVTLFFGLSGTGKTTLSADPHRLLIGDDEHCWSDHGVFNIEGGCYAKCINLSAEKEPEIFDAIKFGSVLENVIYDEKSHVVDYDDSSITENTRCAYPIDYIPSAKIPCLADSHPKNIILLTCDASGVLPPVSKLTPEQVMYHFISGYTSKMAGTEQGVTEPEPTFSSCFGQPFLALHPIRYATMLATKMSQHKANAYLINTGWTGSSYVSGGKRCPLKYTRAILDSIHDGSLANETYETLPIFNLQVPTKVNGVPAELLNPAKNWSQGESKYRGAVTNLANLFVQNFKIYQDRATPDVLAAGPQFE | binds

More lines, now with the values ahead:

Row | binding | Binder
4 | binds | citrate synthase (Cit1) (protein, UniProt P00890 38-479) SSASEQTLKERFAEIIPAKAEEIKKFKKEHGKTVIGEVLLEQAYGGMRGIKGLVWEGSVLDPEEGIRFRGRTIPEIQRELPKAEGSTEPLPEALFWLLLTGEIPTDAQVKALSADLAARSEIPEHVIQLLDSLPKDLHPMAQFSIAVTALESESKFAKAYAQGVSKKEYWSYTFEDSLDLLGKLPVIASKIYRNVFKDGKITSTDPNADYGKNLAQLLGYENKDFIDLMRLYLTIHSDHEGGNVSAHTTHLVGSALSSPYLSLAAGLNGLAGPLHGRANQEVLEWLFKLREEVKGDYSKETIEKYLWDTLNAGRVVPGYGHAVLRKTDPRYTAQREFALKHFPDYELFKLVSTIYEVAPGVLTKHGKTKNPWPNVDSHSGVLLQYYGLTEASFYTVLFGVARAIGVLPQLIIDRAVGAPIERPKSFSTEKYKELVKKIESKN
5 | binds | Ubx4 (protein, UniProt P54730 1-416) MPMVTVKYNFQLFKCKVSLNSTLNDVLHQSIQFFQLHTSSNDWSLIHLDKPVPLDLPWRLLNLPTGVNLELSKSSNFPVANKTNREDIPFNTIKIRFQIPGRDSVVKEMPSDQPIAPILRQMSGAAGDDFKIQVFSKIIEFKTIKDENLTLENLGIQEPSSVRLIFNNTSHSEGISANSAIHPKQTPPTMTNPETVASLPPHELHKPSVFLPSDEPLAVIKDQIEDEEDYELTVEQAKKYQKMLSSKAGTLGGPILTKRLREQSANNLPKKNKAISECLLRVKFPDRSHIQIAFKPNEDMRTVYNVVSQFLIDENMPFTLNQSHPFKPLAKDDKKLLDDLEFGSKTMLLFETNSNSNGPLIKAHLLEDAQKITHETRTTPSVNTINKSNPQGPSDNATSIKKTLNRVPKWMKLSKK

Reference: publication PMC12137173
